Laboratory results taken from PMC10457189.
Results are given in words; binding and its absence hold for the method and conditions named. In cells and extracts the contact can be indirect. Some binding calls cover weakened binding; strength is not graded here. For part of these data: Sequences can lack the tags named with a protein.

Chains of the proteins cited; added tags and fusions are not shown.
UniProt Q14974: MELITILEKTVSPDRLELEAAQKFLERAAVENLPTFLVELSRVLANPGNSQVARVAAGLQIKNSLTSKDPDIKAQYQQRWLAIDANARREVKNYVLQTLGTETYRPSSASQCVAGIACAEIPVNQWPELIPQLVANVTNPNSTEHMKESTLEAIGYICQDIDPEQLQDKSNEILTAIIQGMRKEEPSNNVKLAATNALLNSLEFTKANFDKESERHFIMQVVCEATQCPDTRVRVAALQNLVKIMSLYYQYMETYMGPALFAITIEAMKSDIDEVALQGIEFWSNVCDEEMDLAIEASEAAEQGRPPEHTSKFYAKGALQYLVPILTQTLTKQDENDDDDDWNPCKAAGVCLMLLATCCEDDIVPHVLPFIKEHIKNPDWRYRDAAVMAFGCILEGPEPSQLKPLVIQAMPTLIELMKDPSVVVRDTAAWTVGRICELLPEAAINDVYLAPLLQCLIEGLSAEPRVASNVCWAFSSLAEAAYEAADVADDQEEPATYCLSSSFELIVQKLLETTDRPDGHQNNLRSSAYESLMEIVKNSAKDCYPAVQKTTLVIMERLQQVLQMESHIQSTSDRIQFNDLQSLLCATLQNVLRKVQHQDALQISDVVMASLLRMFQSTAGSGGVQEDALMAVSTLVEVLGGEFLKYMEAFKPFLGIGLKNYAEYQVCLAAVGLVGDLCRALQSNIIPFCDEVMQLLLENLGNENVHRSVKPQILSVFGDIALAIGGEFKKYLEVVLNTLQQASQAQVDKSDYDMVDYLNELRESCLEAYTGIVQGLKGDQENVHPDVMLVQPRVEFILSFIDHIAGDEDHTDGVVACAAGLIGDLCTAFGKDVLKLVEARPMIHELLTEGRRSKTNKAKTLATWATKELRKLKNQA

T1: GST-tagged SIPA1 NLR hinge (GST-NLR), SIPA1(140-179 aa) (human) (UniProt Q96FS4)
T1 sequence: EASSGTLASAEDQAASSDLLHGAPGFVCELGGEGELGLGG

T2: Signal-induced proliferation-associated 1 (SIPA1) (human (endogenous in BT549)) (UniProt Q96FS4)
T2 sequence: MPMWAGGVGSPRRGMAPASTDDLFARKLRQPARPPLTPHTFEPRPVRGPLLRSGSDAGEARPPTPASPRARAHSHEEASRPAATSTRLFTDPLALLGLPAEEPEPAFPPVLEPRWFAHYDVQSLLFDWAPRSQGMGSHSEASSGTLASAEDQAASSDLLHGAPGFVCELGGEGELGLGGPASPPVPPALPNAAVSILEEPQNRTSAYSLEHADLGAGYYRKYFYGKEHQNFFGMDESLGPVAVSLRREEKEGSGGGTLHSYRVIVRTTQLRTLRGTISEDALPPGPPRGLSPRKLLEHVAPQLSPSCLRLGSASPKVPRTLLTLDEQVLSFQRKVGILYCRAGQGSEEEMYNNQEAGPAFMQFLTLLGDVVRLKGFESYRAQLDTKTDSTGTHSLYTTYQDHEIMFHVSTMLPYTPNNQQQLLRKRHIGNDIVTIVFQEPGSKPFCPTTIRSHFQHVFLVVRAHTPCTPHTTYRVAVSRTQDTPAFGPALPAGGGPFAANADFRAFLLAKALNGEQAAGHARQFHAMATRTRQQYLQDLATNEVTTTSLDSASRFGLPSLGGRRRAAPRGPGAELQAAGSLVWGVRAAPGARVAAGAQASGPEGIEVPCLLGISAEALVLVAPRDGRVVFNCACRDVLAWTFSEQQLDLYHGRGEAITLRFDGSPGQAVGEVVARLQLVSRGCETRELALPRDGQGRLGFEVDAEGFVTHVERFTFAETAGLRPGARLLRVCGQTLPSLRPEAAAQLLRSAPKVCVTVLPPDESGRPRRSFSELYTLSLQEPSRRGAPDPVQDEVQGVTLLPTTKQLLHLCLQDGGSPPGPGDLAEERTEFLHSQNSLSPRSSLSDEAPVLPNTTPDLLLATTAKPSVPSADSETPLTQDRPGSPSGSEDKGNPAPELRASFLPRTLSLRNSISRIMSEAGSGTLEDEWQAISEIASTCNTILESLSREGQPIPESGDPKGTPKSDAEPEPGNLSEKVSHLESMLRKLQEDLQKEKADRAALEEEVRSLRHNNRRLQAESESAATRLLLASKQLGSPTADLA


Tests used:
[1] = target: T1, GST-tagged SIPA1 NLR hinge (GST-NLR), SIPA1(140-179 aa) (human); experiment: pull-down; purified GST or GST-NLR incubated with whole-cell lysates; Western blot with anti-importin β1 mAb (the text calls it Co-IP); only the target purified
[2] = target: T2, Signal-induced proliferation-associated 1 (SIPA1) (human (endogenous in BT549)); experiment: co-IP; BT549 cells cultured with fibronectin for 24 h; whole-cell lysates in TNE lysis buffer; IP with anti-SIPA1 or anti-importin β1 antibody and protein G beads; Western blot
[3] = target: importin β1 (human (endogenous in BT549)) (UniProt Q14974); experiment: as above

binding [1]	binding [2]	binding [3]	Molecule
binds	binds		importin β1 (from UniProt Q14974 1-876)
		binds	Signal-induced proliferation-associated 1 (SIPA1) (protein, UniProt Q96FS4 1-1042) MPMWAGGVGSPRRGMAPASTDDLFARKLRQPARPPLTPHTFEPRPVRGPLLRSGSDAGEARPPTPASPRARAHSHEEASRPAATSTRLFTDPLALLGLPAEEPEPAFPPVLEPRWFAHYDVQSLLFDWAPRSQGMGSHSEASSGTLASAEDQAASSDLLHGAPGFVCELGGEGELGLGGPASPPVPPALPNAAVSILEEPQNRTSAYSLEHADLGAGYYRKYFYGKEHQNFFGMDESLGPVAVSLRREEKEGSGGGTLHSYRVIVRTTQLRTLRGTISEDALPPGPPRGLSPRKLLEHVAPQLSPSCLRLGSASPKVPRTLLTLDEQVLSFQRKVGILYCRAGQGSEEEMYNNQEAGPAFMQFLTLLGDVVRLKGFESYRAQLDTKTDSTGTHSLYTTYQDHEIMFHVSTMLPYTPNNQQQLLRKRHIGNDIVTIVFQEPGSKPFCPTTIRSHFQHVFLVVRAHTPCTPHTTYRVAVSRTQDTPAFGPALPAGGGPFAANADFRAFLLAKALNGEQAAGHARQFHAMATRTRQQYLQDLATNEVTTTSLDSASRFGLPSLGGRRRAAPRGPGAELQAAGSLVWGVRAAPGARVAAGAQASGPEGIEVPCLLGISAEALVLVAPRDGRVVFNCACRDVLAWTFSEQQLDLYHGRGEAITLRFDGSPGQAVGEVVARLQLVSRGCETRELALPRDGQGRLGFEVDAEGFVTHVERFTFAETAGLRPGARLLRVCGQTLPSLRPEAAAQLLRSAPKVCVTVLPPDESGRPRRSFSELYTLSLQEPSRRGAPDPVQDEVQGVTLLPTTKQLLHLCLQDGGSPPGPGDLAEERTEFLHSQNSLSPRSSLSDEAPVLPNTTPDLLLATTAKPSVPSADSETPLTQDRPGSPSGSEDKGNPAPELRASFLPRTLSLRNSISRIMSEAGSGTLEDEWQAISEIASTCNTILESLSREGQPIPESGDPKGTPKSDAEPEPGNLSEKVSHLESMLRKLQEDLQKEKADRAALEEEVRSLRHNNRRLQAESESAATRLLLASKQLGSPTADLA
